From PubChem BioAssay record AID1508623 (NCATS, 2021).

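Change in HTT-promoter-driven luminescence in engineered HEK293 reporter cells after a 24 h treatment, measured at one concentration. Percent change in reporter signal versus vehicle (0%) down to no light (-100%); more negative values mean stronger inhibition of promoter activity.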

Values are in %. Common to all entries: at 57.5 µM (top of the series). Only part of the assay is listed here, not a random draw.

* Cc1ccc(CNC(=O)CCS(=O)(=O)c2ccc3c(c2)CC(C)N3C(=O)C2CC2)cc1 (centres undefined) | activity change -27.05%
* CCCN1CCN(CCCNC(=O)c2cnn(-c3ccc(C)cc3)c2-n2cccc2)CC1 | activity change -14.67%
* CCCCNS(=O)(=O)c1ccc(NC(=O)c2c(-c3ccccc3)noc2C)cc1 | activity change -20.06%
* COC(=O)c1cc2oc3ccccc3c2n1Cc1nc(-c2cccc(Cl)c2)oc1C | activity change 3.063%
* CCc1ccccc1NC(=O)CSc1nnc(-c2cc(OC)c(OC)c(OC)c2)o1 | activity change -1.052%
* COc1ccc(-c2nc3cc(NC(=O)c4ccc(C)cc4)ccc3o2)cc1Cl | activity change -54.53%
* COc1ccc(OC)c(CNC(=O)c2ccc(-c3nc(CSc4ccccc4)c(C)o3)cc2)c1 | activity change -41.96%
* CCCN1CCN(CCCNC(=O)Cn2nc(C)n3c(cc4cc(F)ccc43)c2=O)CC1 | activity change -14.14%
* Cn1c(=O)c2c(nc(SCC(=O)Nc3ccc(F)cc3)n2Cc2ccc(Cl)cc2)n(C)c1=O | activity change -19.49%
* CCOc1ccc(S(=O)(=O)N2CCC(N3CCN(Cc4ccc(C)cc4)C(=O)C3=O)CC2)cc1 | activity change -5.29%
* COc1cc2c(-c3ccc(C)cc3)nc3c(c(C)nn3-c3ccccc3)c2cc1OC | activity change -5.285%
* CCCOc1ccc(C2C(=O)N(C3CCCCCC3)CC(=O)N2CCC)cc1OC (centres undefined) | activity change -34.91%
* COc1ccc(-c2cc(C(=O)Nc3ccc4c(c3)OCO4)no2)cc1 | activity change -9.82%
* CCc1nn(CC(=O)NCC(C)c2ccccc2)c(=O)c2cc3c(OC)cccc3n12 (centres undefined) | activity change -5.166%
* CCc1cccc(NC(=O)CC(c2ccc(OC)cc2)N2Cc3ccccc3C2=O)c1 (centres undefined) | activity change -51.55%
* O=C(CSc1nc2ccccc2nc1Cc1ccc(F)cc1)Nc1ccc2c(c1)OCO2 | activity change 10.23%
* CCN(C(=O)Cn1c(C(=O)OC)cc2oc3ccccc3c21)c1cccc(C)c1 | activity change -37.02%
* CC1CCN(c2nn3c(=O)c(C(=O)NCCCOC(C)C)cnc3s2)CC1 | activity change -11.27%
* CCCc1c(C)c2ccc(O)c(CN3CCN(c4ccc(F)cc4)CC3)c2oc1=O | activity change -28.86%
* COc1ccccc1OCCSc1nc(-c2ccc(C(C)(C)C)cc2)nc2cc(=O)[nH]n12 | activity change -13.36%
* COc1ccccc1CNS(=O)(=O)c1c(C)nc2scc(C)n2c1=O | activity change -22.7%
* COc1cc(NS(=O)(=O)c2ccc3oc(=O)c4ncn(C)c4c3c2)cc(OC)c1 | activity change 4.13%
* COc1cccc(CNC(=O)CCS(=O)(=O)c2ccc3c(c2)CC(C)N3C(=O)C2CC2)c1 (centres undefined) | activity change -22.54%
* Cc1ccc(-c2cc(C(=O)Nc3ccc(SC(F)F)cc3)no2)cc1F | activity change -19.92%
* CCCOc1ccc(NC(=O)CC2C(=O)N(c3ccc(C)cc3)C(=O)N2Cc2cccc(OC)c2)cc1 (centres undefined) | activity change -14.26%
* COc1ccc(CCNC(=O)CCc2c(C)c3cc4c(C)coc4cc3oc2=O)cc1 | activity change -7.821%
* CC1CCN(c2ccc(-c3cccc(NS(=O)(=O)c4cccs4)c3)nn2)CC1 | activity change 23.68%
* CCCOc1ccc(C(=O)Nc2cc3c(cc2N2CCCCC2)n(C)c(=O)n3C)cc1 | activity change -7.063%
* COc1ccccc1N1CCN(C(=O)COc2ccccc2C#N)CC1 | activity change -16.53%